Values quoted from earlier work, collected in patent US20180256601A1, “URSODEOXYCHOLIC ACID AND BRAIN DISORDERS” (priority 2015, published 2018).
For at least one compound, name, drawing or mass did not settle the structure.

Legend:
[1] = system: human dopaminergic SH-SY5Y cells; conditions: 50-200 μM UDCA

Compound: C[C@H](CCC(=O)O)[C@H]1CC[C@H]2[C@@H]3[C@@H](O)C[C@@H]4C[C@H](O)CC[C@]4(C)[C@H]3CC[C@]12C [UDCA, Ursodeoxycholic Acid]
- sodium nitroprusside-induced cell death, ROS production, RNS production, mitochondrial membrane potential loss, reduced glutathione depletion, Bcl-2/Bax ratio decrease, cytochrome c release [1]: dose-dependently prevented
- therapeutic effects in prion disease (prion disease; Cortez et al, 2015): variety of therapeutic effects
- neuronal loss and astrocytosis (prion disease; mouse models given 0.006 to 0.01% (wt/wt) of UDCA): reduced neuronal loss and astrocytosis
